We go through one molecule from patent US8703913B2, “Sensor” (Medical Research Council, priority 2008, dated 2014).

The conditions of data set [1]: reported (19); cited from earlier work.
A short description of data set [2]: Filament formation by right angle light scattering. The settings on record: 4 mM ATP, 20° C., light scattering at 340 nm.

Like-named read-outs stand apart in the source and are kept apart here.

B1: wild-type ParM: prokaryotic actin homologue encoded on Escherichia coli plasmid R1, accession P11904 (protein, listed as Escherichia coli)
chain: MLVFIDDGSTNIKLQWQESDGTIKQHISPNSFKREWAVSFGDKKVFNYTLNGEQYSFDPISPDAVVTTNIAWQYSDVNVVAVHHALLTSGLPVSEVDIVCTLPLTEYYDRNNQPNTENIERKKANFRKKITLNGGDTFTIKDVKVMPESIPAGYEVLQELDELDSLLIIDLGGTTLDISQVMGKLSGISKIYGDSSLGVSLVTSAVKDALSLARTKGSSYLADDIIIHRKDNNYLKQRINDENKISIVTEAMNEALRKLEQRVLNTLNEFSGYTHVMVIGGGAELICDAVKKHTQIRDERFFKTNNSQYDLVNGMYLIGN
Consider B1, for which the “critical concentration of filament formation in presence of ADP” value in data set [1] was around 100 µM. Moreover, the “critical concentration of filament formation in presence of ATP” value is 2.3 µM in data set [1] and 2.5 µM in data set [2].
